Results are given in words; binding and its absence hold for the method and conditions named. In cells and extracts the contact can be indirect. Some entries that bind do so weakly or less than the wild type. Tags and fused reporters may be left off the sequences shown. Each block holds one molecule with its values, some of them ahead of it.
What was measured:
[1] = target: T1, 3XFlag-Nkd1 (human Nkd1, wild type) (human) (UniProt Q969G9); test: co-IP; LUMIER assay in HEK293T cells: luciferase-tagged β-catenin or Dvl2 with 3XFlag-Nkd1 constructs; anti-Flag immunoprecipitation of cell lysates, luciferase activity of the immunoprecipitate
T1 sequence: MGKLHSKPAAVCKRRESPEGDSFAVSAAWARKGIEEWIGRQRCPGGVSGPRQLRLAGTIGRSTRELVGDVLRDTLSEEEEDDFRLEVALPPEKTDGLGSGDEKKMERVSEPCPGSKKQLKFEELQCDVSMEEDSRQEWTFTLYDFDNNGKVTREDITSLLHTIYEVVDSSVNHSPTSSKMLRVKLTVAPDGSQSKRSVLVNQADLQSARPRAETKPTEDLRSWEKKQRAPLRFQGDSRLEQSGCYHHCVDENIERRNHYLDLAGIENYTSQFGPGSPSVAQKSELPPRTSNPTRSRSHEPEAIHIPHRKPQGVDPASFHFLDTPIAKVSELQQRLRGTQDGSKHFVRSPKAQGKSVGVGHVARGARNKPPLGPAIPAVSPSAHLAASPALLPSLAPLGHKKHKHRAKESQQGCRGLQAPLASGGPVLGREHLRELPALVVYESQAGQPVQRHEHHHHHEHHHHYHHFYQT

Chains of the proteins cited; added tags and fusions are not shown.
UniProt P35222: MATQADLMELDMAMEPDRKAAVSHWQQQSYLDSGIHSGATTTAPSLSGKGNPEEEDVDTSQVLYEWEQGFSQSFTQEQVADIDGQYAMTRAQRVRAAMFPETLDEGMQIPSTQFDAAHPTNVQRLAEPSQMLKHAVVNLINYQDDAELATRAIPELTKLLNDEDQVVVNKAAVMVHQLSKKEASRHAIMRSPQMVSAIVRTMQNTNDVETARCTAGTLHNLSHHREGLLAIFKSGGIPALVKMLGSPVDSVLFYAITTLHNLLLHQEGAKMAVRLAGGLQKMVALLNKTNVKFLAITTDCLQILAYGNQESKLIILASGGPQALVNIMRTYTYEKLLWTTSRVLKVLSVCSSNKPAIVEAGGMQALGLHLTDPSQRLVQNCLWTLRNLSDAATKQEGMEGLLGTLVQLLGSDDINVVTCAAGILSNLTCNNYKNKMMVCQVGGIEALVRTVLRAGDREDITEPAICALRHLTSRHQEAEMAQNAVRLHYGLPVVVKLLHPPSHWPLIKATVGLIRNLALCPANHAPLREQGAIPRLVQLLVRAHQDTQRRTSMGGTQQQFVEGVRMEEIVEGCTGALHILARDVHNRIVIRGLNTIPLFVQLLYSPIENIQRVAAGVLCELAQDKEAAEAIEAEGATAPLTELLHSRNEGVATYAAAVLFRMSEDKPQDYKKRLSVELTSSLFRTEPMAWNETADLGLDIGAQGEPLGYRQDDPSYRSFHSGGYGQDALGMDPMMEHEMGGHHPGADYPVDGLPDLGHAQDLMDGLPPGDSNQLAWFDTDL

[2] = target: T2, Nkd1^myc (zebrafish Naked Cuticle homolog 1, C-terminal myc tag) (zebrafish) (UniProt Q2TJA6); test: co-IP; competition: nkd1^myc co-injected with increasing doses of dsh^HA (0pg, 125pg and 250pg) into zebrafish embryos, harvested at dome stage, immunoprecipitated with anti-myc and western blotted with anti-β-catenin
T2 sequence: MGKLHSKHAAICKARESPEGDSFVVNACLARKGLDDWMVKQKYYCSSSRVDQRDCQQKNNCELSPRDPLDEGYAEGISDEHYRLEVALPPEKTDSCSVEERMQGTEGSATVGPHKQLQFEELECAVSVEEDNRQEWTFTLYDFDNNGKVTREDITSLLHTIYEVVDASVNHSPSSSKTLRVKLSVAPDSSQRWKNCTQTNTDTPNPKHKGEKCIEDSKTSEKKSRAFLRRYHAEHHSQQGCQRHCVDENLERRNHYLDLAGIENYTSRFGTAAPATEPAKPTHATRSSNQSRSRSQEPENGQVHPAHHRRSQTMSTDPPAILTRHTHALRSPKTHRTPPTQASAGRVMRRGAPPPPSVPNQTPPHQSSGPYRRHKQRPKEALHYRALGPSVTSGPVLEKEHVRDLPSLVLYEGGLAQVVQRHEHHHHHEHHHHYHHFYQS

[3] = target: T2, Nkd1^myc (zebrafish Naked Cuticle homolog 1, C-terminal myc tag) (zebrafish); test: co-IP; lysates of zebrafish embryos injected with nkd1^myc or nkd1^G2A-myc RNA, with or without wnt8 RNA, harvested at dome stage (4.3 hpf); modified Rubenfelds buffer with 0.3% NP-40; immunoprecipitation with anti-zDvl2, anti-myc or anti-β-catenin, western blot
[4] = target: T3, β-catenin (endogenous zebrafish) (zebrafish (endogenous in zebrafish embryos)) (UniProt F1QGH7); test: as above
T3 sequence: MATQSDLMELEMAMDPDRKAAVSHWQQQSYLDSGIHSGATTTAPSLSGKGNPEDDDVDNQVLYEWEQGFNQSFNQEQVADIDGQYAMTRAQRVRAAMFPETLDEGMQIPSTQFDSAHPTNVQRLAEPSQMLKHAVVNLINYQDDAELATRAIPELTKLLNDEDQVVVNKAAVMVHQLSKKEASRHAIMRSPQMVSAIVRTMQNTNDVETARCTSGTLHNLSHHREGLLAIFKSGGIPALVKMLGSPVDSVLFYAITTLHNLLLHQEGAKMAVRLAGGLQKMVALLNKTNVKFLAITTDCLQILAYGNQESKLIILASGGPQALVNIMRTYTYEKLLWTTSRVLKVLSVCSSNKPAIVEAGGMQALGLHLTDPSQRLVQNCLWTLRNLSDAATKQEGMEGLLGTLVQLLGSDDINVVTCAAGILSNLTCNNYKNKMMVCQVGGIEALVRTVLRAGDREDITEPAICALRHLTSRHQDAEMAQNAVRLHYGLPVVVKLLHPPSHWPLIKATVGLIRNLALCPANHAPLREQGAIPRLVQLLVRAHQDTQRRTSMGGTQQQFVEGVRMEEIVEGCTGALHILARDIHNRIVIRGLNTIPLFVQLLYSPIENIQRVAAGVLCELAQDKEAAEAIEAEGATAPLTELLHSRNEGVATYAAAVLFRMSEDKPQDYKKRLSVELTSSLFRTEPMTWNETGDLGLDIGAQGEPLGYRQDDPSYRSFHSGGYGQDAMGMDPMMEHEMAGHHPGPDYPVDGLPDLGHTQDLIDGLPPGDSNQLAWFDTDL

binding [1]: binds
Molecule: luciferase-tagged β-catenin (β-catenin-Lux) (from UniProt P35222 1-781)

binding [2]: binds
binding [3]: binds
B1: β-catenin (endogenous zebrafish) (protein, UniProt F1QGH7 1-780)
chain: MATQSDLMELEMAMDPDRKAAVSHWQQQSYLDSGIHSGATTTAPSLSGKGNPEDDDVDNQVLYEWEQGFNQSFNQEQVADIDGQYAMTRAQRVRAAMFPETLDEGMQIPSTQFDSAHPTNVQRLAEPSQMLKHAVVNLINYQDDAELATRAIPELTKLLNDEDQVVVNKAAVMVHQLSKKEASRHAIMRSPQMVSAIVRTMQNTNDVETARCTSGTLHNLSHHREGLLAIFKSGGIPALVKMLGSPVDSVLFYAITTLHNLLLHQEGAKMAVRLAGGLQKMVALLNKTNVKFLAITTDCLQILAYGNQESKLIILASGGPQALVNIMRTYTYEKLLWTTSRVLKVLSVCSSNKPAIVEAGGMQALGLHLTDPSQRLVQNCLWTLRNLSDAATKQEGMEGLLGTLVQLLGSDDINVVTCAAGILSNLTCNNYKNKMMVCQVGGIEALVRTVLRAGDREDITEPAICALRHLTSRHQDAEMAQNAVRLHYGLPVVVKLLHPPSHWPLIKATVGLIRNLALCPANHAPLREQGAIPRLVQLLVRAHQDTQRRTSMGGTQQQFVEGVRMEEIVEGCTGALHILARDIHNRIVIRGLNTIPLFVQLLYSPIENIQRVAAGVLCELAQDKEAAEAIEAEGATAPLTELLHSRNEGVATYAAAVLFRMSEDKPQDYKKRLSVELTSSLFRTEPMTWNETGDLGLDIGAQGEPLGYRQDDPSYRSFHSGGYGQDAMGMDPMMEHEMAGHHPGPDYPVDGLPDLGHTQDLIDGLPPGDSNQLAWFDTDL

binding [4]: binds
B2: Nkd1^myc (zebrafish Naked Cuticle homolog 1, C-terminal myc tag) (protein, UniProt Q2TJA6 1-440)
chain: MGKLHSKHAAICKARESPEGDSFVVNACLARKGLDDWMVKQKYYCSSSRVDQRDCQQKNNCELSPRDPLDEGYAEGISDEHYRLEVALPPEKTDSCSVEERMQGTEGSATVGPHKQLQFEELECAVSVEEDNRQEWTFTLYDFDNNGKVTREDITSLLHTIYEVVDASVNHSPSSSKTLRVKLSVAPDSSQRWKNCTQTNTDTPNPKHKGEKCIEDSKTSEKKSRAFLRRYHAEHHSQQGCQRHCVDENLERRNHYLDLAGIENYTSRFGTAAPATEPAKPTHATRSSNQSRSRSQEPENGQVHPAHHRRSQTMSTDPPAILTRHTHALRSPKTHRTPPTQASAGRVMRRGAPPPPSVPNQTPPHQSSGPYRRHKQRPKEALHYRALGPSVTSGPVLEKEHVRDLPSLVLYEGGLAQVVQRHEHHHHHEHHHHYHHFYQS

binding [4]: binds weakly
B3: Nkd1^G2A-myc (zebrafish Nkd1, glycine 2 to alanine, C-terminal myc tag) (protein, UniProt Q2TJA6 1-440)
chain: MAKLHSKHAAICKARESPEGDSFVVNACLARKGLDDWMVKQKYYCSSSRVDQRDCQQKNNCELSPRDPLDEGYAEGISDEHYRLEVALPPEKTDSCSVEERMQGTEGSATVGPHKQLQFEELECAVSVEEDNRQEWTFTLYDFDNNGKVTREDITSLLHTIYEVVDASVNHSPSSSKTLRVKLSVAPDSSQRWKNCTQTNTDTPNPKHKGEKCIEDSKTSEKKSRAFLRRYHAEHHSQQGCQRHCVDENLERRNHYLDLAGIENYTSRFGTAAPATEPAKPTHATRSSNQSRSRSQEPENGQVHPAHHRRSQTMSTDPPAILTRHTHALRSPKTHRTPPTQASAGRVMRRGAPPPPSVPNQTPPHQSSGPYRRHKQRPKEALHYRALGPSVTSGPVLEKEHVRDLPSLVLYEGGLAQVVQRHEHHHHHEHHHHYHHFYQS
